Laboratory results as given in article PMC9534957.
No constants are given. Whether binding was seen depends on the method and setting. Binding seen in cells or lysates may run through a third protein. Some results given as binding are weak or reduced against the parent protein; the word gives no strength. For part of these data: Sequences can lack the tags named with a protein.

Amino acid sequences for entries named in this document (tags omitted). A change or cut given only in a name is not applied to a line headed by its entry. Chains listed by the source or under a name are the forms on record and can include a tag or linker. Residues count along the entry.
UniProt Q15437: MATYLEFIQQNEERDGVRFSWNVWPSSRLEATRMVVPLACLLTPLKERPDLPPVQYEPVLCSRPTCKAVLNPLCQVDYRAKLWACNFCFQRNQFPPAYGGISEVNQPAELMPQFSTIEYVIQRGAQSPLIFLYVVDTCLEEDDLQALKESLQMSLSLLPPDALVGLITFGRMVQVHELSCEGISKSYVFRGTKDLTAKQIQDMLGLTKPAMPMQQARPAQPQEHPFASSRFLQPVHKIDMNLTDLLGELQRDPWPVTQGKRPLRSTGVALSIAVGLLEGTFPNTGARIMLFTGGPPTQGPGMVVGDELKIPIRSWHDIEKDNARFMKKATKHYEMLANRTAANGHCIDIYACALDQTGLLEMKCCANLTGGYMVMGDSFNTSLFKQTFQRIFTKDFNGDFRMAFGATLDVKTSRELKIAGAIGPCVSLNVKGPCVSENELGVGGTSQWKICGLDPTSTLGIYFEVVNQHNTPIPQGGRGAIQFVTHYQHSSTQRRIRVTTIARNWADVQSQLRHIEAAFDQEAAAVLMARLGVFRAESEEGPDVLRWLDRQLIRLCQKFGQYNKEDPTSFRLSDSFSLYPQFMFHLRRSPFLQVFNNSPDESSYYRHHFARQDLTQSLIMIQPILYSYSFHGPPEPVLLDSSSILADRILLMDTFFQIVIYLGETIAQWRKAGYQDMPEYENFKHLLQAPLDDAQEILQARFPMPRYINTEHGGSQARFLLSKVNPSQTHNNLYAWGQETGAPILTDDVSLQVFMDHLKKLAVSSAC
V5-tagged full-length Fzd5 (wild type) (Q13467, residues 27-585): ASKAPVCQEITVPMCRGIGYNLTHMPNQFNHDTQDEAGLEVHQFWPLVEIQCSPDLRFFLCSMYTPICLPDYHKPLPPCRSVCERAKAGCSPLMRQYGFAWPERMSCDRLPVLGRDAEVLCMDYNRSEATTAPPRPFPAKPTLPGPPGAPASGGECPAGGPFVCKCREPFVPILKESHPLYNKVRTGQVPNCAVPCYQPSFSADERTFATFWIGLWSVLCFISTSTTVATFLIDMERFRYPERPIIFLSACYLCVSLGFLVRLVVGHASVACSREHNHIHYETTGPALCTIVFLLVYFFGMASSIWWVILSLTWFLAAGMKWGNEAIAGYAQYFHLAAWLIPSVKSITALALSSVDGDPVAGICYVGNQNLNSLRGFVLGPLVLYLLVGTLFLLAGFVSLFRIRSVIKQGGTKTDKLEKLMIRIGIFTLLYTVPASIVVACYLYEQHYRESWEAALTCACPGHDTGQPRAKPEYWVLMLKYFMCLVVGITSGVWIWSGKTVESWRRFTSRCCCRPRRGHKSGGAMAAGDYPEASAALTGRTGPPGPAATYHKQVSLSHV
V5-tagged Fzd5 C538A (Q13467, form named): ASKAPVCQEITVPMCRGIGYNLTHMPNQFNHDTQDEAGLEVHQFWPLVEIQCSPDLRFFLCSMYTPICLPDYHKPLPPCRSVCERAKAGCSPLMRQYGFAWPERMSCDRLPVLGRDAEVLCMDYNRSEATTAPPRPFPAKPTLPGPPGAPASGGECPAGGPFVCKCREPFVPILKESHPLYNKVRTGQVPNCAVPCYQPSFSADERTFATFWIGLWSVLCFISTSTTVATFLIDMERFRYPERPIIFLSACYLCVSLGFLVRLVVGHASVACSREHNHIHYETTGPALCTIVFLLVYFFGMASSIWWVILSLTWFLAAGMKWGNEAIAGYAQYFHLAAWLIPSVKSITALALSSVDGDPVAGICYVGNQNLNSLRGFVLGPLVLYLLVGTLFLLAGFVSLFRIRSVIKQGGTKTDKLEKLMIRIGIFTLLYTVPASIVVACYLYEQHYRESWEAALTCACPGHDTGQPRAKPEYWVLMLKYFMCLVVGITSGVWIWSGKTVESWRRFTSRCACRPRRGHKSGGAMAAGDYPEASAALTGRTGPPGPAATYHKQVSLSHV
V5-tagged Fzd5 I199A (Q13467, form named): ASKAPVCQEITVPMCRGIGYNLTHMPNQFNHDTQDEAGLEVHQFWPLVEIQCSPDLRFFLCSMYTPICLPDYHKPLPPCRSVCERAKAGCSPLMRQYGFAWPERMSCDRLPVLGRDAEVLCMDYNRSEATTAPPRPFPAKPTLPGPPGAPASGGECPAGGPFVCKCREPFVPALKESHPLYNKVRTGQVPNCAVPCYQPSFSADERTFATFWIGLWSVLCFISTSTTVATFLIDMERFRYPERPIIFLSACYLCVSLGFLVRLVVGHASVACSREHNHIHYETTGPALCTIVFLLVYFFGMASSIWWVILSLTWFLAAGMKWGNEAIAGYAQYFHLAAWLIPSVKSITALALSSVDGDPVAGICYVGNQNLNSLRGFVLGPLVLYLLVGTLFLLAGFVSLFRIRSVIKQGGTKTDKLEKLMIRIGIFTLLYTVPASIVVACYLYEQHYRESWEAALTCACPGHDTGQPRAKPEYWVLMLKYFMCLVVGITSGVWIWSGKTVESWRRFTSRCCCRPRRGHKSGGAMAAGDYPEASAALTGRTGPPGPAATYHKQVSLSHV

Key:
Assay in all cases: co-IP; total cell lysate on α-HA-, α-Flag- or α-V5-agarose at 4 °C overnight, washed 5 times with TBS-T, SDS-PAGE and Western blot; cells also treated with added cholesterol or statin
HA-tagged Shisa3 = molecular target: T1, HA-tagged Shisa3 (UniProt A0PJX4)
T1 sequence: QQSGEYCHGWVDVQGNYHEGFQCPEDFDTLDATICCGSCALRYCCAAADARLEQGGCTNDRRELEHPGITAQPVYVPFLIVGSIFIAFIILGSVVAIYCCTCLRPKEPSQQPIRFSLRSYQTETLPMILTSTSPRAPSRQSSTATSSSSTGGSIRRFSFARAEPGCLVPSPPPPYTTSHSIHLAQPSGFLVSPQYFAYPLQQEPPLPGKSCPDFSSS

HA-tagged TMEM79 = molecular target: T2, HA-tagged TMEM79 (UniProt Q9BSE2)
T2 sequence: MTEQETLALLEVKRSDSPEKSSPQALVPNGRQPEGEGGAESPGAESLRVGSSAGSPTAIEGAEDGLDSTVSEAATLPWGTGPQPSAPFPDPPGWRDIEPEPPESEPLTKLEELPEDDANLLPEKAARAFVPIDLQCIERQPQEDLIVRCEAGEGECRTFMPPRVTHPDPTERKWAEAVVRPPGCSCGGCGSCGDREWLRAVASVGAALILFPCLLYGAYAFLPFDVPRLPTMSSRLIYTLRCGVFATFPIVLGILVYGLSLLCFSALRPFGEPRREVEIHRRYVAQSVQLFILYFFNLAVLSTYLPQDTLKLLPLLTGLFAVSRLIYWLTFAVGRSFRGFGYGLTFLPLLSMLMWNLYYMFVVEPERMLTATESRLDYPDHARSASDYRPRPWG

Flag-Sec23B = Flag-Sec23B (UniProt Q15437)

Row | Substance | binding (HA-tagged Shisa3) | binding (HA-tagged TMEM79) | binding (Flag-Sec23B)
1 | V5-tagged Fzd5 C538A (from UniProt Q13467 27-585) (receptor) | binds | binds | binds weakly
2 | V5-tagged Fzd5 I199A (from UniProt Q13467 27-585) (receptor) | binds | binds | binds weakly
3 | V5-tagged full-length Fzd5 (wild type) (from UniProt Q13467 27-585) (receptor) | binds | binds | binds
